Source: publication PMC10701626
No constants are given. Whether binding was seen depends on the method and setting. In cells and extracts the contact can be indirect. Some binding calls cover weakened binding; strength is not graded here.

The chains behind the UniProt entries cited, without tags or fusion partners. Residues count along the entry.
UniProt P10244: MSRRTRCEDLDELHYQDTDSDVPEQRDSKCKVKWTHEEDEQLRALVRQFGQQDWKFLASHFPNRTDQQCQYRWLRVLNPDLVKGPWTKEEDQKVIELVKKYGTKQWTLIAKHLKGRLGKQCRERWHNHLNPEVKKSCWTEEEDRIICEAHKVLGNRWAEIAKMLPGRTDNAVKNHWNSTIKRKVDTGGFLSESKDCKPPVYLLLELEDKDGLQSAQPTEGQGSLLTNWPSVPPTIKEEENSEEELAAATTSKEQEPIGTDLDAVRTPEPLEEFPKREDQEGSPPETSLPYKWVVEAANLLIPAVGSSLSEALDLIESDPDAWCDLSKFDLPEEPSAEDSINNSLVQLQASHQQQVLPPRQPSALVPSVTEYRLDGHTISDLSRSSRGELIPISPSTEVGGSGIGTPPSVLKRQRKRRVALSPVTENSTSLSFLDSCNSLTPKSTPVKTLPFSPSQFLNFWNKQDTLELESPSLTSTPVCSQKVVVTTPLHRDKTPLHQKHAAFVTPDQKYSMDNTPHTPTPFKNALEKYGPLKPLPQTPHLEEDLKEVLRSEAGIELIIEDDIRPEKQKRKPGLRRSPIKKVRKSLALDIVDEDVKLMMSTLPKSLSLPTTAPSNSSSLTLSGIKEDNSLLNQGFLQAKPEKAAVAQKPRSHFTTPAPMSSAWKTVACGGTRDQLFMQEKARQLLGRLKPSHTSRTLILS
UniProt Q5TKA1: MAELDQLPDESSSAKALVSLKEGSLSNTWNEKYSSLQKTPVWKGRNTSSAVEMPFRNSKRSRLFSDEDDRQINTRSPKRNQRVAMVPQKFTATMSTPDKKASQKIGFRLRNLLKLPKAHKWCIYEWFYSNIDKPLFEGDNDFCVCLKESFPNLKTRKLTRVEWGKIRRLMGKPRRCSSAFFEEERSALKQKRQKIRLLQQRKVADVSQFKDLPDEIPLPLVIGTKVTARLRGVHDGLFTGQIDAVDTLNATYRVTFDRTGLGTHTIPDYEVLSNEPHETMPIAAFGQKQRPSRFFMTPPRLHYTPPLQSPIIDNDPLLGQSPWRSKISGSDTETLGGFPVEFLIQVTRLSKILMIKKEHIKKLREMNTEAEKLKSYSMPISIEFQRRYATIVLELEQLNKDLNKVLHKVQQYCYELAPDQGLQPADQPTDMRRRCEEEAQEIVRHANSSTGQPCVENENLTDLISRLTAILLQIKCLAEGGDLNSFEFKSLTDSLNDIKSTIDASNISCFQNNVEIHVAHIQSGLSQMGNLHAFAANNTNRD
UniProt Q15648: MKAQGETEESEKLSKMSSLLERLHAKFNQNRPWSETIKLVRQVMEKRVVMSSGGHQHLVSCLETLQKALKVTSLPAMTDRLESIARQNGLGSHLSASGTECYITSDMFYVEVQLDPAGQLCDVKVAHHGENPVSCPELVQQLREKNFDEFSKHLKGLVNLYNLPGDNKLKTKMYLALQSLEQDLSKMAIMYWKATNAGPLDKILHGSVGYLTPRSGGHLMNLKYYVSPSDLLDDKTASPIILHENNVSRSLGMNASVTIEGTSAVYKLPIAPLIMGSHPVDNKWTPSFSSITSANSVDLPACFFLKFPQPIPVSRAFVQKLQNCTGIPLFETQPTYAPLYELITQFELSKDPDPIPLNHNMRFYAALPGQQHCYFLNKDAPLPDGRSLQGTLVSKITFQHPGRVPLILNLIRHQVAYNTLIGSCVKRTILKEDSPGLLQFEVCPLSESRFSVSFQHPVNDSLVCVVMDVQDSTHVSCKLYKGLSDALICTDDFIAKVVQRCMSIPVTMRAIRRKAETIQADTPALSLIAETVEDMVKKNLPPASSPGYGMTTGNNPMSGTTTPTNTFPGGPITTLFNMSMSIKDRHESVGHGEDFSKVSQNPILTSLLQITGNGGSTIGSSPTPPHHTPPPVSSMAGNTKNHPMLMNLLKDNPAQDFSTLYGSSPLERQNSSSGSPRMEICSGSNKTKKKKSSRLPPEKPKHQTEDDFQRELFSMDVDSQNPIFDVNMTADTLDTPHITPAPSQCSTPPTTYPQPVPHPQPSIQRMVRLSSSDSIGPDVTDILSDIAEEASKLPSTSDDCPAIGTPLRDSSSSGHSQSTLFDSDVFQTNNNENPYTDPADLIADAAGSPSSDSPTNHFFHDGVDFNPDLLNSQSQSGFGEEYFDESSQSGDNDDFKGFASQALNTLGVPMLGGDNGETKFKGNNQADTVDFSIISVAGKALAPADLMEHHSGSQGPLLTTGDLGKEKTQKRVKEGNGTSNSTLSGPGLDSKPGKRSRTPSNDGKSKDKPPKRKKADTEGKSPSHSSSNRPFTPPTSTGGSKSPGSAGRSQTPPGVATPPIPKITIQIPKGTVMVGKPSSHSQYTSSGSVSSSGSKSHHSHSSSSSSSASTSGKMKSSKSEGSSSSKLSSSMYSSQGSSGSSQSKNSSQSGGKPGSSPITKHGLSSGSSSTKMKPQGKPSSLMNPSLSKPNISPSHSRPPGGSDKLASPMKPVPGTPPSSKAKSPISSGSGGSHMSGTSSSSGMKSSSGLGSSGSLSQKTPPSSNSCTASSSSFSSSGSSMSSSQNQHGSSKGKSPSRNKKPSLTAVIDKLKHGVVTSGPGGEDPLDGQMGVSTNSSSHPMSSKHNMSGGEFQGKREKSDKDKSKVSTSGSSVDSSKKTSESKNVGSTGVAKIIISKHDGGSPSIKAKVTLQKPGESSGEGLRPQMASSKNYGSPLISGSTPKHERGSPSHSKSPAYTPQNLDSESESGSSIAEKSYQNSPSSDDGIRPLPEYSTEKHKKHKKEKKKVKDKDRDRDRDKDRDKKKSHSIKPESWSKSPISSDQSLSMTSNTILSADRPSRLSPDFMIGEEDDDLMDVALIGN
UniProt Q9Y4K0, residues 26-774: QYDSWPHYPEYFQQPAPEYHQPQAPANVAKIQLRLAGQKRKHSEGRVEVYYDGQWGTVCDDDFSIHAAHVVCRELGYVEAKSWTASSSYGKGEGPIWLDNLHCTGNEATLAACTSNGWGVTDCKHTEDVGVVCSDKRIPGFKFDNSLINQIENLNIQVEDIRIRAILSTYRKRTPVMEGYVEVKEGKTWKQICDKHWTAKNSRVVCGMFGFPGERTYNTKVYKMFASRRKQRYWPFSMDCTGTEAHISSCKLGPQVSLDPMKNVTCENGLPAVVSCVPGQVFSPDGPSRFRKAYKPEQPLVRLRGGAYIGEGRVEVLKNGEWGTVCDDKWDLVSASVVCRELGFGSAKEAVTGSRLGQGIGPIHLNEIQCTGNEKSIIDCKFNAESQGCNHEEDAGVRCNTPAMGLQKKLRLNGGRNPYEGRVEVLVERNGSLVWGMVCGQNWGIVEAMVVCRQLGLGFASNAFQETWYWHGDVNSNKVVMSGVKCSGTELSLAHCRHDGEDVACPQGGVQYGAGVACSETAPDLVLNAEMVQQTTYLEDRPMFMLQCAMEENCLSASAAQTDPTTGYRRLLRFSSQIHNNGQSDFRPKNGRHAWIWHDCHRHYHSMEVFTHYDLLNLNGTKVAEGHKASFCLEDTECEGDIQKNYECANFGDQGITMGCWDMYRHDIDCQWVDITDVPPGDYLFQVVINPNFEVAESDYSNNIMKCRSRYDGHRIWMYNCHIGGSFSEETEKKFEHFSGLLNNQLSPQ

How the values were obtained:
[1] = biological target: B-Myb (Proto-Oncogene Like 2), endogenous (human (endogenous in MDA-MB-231)) (UniProt P10244); test: co-IP; pulldown of endogenous Lin9, B-Myb or FOXM1 (4 μg antibody, Protein A Dynabeads) from MDA-MB-231 nuclear extract; irrelevant IgG as control
[2] = biological target: Lin9 (MuvB subunit), endogenous (human (endogenous in MDA-MB-231)) (UniProt Q5TKA1); test: as above
[3] = biological target: MED1 (Mediator complex subunit), endogenous (human (endogenous in MDA-MB-231)) (UniProt Q15648); test: co-IP; endogenous MED1 pulldown (5 μg anti-MED1, Protein A Dynabeads) from MDA-MB-231 nuclear extract; cells with DMSO, 40 μM PXS for 96 h or 5 μM JQ1 for 24 h (BRD4S-MED1 decreased with JQ1)
[4] = biological target: T1, Forkhead Box M1 (FOXM1), endogenous (human (endogenous in MDA-MB-231)) (UniProt Q08050); test: co-IP; pulldown of endogenous Lin9, B-Myb or FOXM1 (4 μg antibody, Protein A Dynabeads) from MDA-MB-231 nuclear extract; irrelevant IgG as control
T1 sequence: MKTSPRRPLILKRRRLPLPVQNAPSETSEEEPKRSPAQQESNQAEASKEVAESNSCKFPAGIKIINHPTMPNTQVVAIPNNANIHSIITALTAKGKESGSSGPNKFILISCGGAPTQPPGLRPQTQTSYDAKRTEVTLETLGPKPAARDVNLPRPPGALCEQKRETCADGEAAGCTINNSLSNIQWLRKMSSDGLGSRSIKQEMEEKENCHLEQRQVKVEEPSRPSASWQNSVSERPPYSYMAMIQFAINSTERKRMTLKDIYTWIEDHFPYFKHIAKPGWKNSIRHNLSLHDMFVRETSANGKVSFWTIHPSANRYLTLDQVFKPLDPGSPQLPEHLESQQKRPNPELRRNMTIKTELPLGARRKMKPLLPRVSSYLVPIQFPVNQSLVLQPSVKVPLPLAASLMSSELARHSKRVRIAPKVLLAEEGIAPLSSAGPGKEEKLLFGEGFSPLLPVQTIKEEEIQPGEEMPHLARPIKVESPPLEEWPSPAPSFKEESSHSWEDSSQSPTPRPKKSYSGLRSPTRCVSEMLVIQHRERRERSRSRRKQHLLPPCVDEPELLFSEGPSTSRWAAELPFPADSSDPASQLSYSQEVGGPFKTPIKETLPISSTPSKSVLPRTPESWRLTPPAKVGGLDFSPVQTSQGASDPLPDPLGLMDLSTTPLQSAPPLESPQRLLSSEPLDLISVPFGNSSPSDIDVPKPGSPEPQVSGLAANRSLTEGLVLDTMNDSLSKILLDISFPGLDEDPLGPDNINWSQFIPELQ

binding [1] | binding [2] | binding [3] | binding [4] | Substance
binds | binds | – | – | MED1 (Mediator complex subunit), endogenous (from UniProt Q15648 1-1581)
binds | binds | binds | binds | Lysyl oxidase-like 2 (LOXL2), endogenous (from UniProt Q9Y4K0 26-774)
